From the supplement of paper PMC12819154, “High-throughput peptide-centric local stability assay extends protein–ligand identification to membrane proteins, tissues and bacteria” (Nature Structural & Molecular Biology, 2025)
The list shows a part of the results. Most values lie at the level of the controls, where differences are scatter.

By UniProt entry, the sequences of proteins in these tests, tags left out. Where a name states a change or a piece, a line headed by the entry shows the natural chain unless it says otherwise.
UniProt Q15397: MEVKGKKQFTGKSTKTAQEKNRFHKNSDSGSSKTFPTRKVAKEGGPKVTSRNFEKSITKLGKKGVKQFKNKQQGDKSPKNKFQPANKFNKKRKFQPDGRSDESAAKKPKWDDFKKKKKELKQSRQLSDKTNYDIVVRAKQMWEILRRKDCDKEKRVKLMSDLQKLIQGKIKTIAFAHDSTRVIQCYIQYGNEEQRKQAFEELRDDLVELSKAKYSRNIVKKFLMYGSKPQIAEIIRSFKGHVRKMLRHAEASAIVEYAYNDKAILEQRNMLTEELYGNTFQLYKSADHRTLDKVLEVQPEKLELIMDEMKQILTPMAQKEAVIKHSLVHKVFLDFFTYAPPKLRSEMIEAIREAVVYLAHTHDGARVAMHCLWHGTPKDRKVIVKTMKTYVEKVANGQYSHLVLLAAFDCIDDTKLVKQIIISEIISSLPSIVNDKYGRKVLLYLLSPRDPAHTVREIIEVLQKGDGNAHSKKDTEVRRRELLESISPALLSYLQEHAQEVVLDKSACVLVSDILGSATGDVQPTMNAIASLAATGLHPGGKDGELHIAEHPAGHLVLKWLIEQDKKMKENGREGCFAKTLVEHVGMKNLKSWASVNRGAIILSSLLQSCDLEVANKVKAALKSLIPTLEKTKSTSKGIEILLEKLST
UniProt Q16543: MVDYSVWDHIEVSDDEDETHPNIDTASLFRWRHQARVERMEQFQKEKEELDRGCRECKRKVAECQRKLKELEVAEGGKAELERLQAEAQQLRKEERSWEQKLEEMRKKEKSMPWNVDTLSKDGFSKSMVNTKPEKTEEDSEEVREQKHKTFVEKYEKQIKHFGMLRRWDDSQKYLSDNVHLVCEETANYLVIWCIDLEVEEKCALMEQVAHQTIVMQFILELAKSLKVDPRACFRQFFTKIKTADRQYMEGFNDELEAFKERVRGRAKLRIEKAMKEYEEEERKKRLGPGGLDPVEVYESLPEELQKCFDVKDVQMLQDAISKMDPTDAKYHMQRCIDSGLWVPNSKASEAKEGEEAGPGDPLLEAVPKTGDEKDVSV
UniProt Q15170: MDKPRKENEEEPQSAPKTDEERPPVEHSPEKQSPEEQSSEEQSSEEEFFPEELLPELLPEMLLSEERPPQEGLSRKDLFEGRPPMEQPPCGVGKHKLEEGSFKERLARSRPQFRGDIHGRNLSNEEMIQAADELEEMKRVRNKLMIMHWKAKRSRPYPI
UniProt Q1A5X7: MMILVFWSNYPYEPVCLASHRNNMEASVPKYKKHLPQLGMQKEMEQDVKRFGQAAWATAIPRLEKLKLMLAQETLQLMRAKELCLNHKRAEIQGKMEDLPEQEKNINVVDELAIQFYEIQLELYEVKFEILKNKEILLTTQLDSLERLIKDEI
UniProt Q15269: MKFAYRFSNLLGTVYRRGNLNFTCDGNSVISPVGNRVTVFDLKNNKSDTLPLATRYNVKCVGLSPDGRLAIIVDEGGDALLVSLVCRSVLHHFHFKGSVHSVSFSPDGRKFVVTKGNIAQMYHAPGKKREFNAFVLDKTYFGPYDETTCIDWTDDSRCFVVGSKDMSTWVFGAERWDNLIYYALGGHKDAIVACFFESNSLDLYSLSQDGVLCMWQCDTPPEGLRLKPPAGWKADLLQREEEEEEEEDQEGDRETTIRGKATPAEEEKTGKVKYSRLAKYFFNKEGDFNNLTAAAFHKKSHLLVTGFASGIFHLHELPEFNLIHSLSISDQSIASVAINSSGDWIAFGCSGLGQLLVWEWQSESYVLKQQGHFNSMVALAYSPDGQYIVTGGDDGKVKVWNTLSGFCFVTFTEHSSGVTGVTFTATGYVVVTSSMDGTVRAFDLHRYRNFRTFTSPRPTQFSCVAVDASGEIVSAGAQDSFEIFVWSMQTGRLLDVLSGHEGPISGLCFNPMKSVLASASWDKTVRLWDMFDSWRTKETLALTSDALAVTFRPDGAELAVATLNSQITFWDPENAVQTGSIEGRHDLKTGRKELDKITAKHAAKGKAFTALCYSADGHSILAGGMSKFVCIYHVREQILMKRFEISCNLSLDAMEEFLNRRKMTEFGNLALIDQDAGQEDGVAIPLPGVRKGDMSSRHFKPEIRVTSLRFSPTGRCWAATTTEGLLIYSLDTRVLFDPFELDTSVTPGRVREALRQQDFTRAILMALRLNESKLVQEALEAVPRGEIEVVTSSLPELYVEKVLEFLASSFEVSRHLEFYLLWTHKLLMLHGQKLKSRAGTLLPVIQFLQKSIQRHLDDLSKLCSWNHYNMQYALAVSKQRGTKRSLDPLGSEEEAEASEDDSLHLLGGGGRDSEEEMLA
UniProt Q15750: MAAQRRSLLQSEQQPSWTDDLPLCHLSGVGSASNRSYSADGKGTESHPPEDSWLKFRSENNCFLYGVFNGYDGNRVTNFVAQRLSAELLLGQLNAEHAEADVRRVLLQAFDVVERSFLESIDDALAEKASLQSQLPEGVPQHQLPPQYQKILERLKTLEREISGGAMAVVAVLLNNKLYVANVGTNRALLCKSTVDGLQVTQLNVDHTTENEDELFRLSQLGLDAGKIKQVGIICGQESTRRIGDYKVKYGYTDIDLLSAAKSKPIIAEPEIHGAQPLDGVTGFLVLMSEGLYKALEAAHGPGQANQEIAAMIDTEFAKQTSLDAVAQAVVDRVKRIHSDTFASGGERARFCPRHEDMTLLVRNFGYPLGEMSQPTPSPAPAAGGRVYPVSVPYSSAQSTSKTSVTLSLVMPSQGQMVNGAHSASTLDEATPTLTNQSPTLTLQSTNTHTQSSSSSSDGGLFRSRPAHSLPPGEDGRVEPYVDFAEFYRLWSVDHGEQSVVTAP
UniProt Q17R31: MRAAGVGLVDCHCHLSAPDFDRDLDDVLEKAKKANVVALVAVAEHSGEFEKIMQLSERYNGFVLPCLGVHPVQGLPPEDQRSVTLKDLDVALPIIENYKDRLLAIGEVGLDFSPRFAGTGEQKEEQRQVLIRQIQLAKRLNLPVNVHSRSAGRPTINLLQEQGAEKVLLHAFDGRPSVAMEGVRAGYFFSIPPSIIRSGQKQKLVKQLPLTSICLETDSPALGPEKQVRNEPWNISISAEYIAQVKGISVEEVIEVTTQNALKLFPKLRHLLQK
UniProt Q3MII6: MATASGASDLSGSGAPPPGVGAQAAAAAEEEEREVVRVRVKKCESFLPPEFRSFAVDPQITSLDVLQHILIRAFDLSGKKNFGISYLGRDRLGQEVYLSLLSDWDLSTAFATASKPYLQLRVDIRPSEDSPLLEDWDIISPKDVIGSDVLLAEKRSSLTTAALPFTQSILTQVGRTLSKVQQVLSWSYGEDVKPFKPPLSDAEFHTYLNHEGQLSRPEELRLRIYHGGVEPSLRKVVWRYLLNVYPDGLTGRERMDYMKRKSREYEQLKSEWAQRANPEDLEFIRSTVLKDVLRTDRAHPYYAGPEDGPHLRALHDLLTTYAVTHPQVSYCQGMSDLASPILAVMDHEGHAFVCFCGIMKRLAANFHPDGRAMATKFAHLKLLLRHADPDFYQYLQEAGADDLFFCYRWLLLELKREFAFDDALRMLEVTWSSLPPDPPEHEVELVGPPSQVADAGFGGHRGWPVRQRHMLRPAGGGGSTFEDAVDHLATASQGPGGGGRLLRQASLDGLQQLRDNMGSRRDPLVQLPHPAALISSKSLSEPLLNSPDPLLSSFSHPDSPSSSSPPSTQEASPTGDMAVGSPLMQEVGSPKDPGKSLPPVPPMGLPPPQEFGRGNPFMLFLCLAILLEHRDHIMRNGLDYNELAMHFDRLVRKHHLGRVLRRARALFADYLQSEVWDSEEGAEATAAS
UniProt Q2NL82: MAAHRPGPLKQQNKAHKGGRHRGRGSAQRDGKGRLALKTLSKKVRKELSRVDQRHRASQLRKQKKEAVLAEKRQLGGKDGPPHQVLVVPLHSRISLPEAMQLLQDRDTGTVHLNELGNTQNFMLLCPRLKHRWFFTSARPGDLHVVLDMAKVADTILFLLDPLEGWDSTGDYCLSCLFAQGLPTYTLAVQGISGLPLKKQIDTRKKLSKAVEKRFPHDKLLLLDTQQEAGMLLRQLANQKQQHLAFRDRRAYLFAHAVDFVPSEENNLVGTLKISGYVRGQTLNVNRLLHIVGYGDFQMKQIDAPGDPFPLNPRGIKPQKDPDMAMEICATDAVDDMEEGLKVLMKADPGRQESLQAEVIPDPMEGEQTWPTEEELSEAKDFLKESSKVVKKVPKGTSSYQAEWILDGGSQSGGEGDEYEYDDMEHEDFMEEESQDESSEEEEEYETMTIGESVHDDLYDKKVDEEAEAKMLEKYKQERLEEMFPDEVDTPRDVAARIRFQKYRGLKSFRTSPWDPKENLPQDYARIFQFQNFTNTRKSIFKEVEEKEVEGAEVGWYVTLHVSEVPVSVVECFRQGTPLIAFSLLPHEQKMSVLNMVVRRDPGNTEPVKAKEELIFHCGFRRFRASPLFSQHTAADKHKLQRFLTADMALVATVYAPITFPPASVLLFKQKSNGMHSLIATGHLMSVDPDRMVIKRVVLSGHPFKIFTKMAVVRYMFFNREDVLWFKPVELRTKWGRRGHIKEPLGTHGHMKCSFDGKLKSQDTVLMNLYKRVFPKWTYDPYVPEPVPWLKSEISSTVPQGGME
UniProt Q15544, whole entry: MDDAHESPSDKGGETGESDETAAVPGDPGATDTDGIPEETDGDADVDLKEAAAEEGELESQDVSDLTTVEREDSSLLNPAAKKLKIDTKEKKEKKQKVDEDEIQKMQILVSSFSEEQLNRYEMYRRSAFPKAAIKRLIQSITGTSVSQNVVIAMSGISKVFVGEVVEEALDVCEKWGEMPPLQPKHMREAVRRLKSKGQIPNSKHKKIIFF
UniProt Q49AM1: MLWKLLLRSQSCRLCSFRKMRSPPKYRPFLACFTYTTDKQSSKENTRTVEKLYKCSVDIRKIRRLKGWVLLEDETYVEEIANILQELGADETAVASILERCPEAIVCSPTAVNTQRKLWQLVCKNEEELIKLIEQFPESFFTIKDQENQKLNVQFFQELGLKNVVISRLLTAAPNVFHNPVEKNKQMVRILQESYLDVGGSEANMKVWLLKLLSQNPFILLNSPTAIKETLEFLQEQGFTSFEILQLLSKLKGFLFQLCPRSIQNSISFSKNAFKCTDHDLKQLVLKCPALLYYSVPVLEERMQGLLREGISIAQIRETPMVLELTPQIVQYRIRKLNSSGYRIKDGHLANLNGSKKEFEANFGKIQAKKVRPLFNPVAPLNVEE

Each target was assayed with CN[C@@H]1C[C@H]2O[C@@](C)([C@@H]1OC)n1c3ccccc3c3c4c(c5c6ccccc6n2c5c31)C(=O)NC4 [staurosporine] (assay: log2 fold change of tryptic peptide abundance, ligand vs vehicle (limited proteolysis) (log2 ratio); higher = more trypsin-susceptible (destabilized)). Conditions: ligand concentration: 20 uM; sample: K562 cleared lysate; digestion: 4 min, 22 C (HT-PELSA RT4min, Orbitrap Astral).

| Target | log2 fold change |
| --- | --- |
| UniProt Q15397 (peptide sequence: VIQCYIQYGNEEQRK, peptide start residue: 182) | -0.343 |
| CDC37 (peptide sequence: KVAECQRK, peptide start residue: 60) (UniProt Q16543) | -1.55 |
| TCEAL1 (peptide sequence: KENEEEPQSAPK, peptide start residue: 6) (UniProt Q15170) | -0.493 |
| UniProt Q1A5X7 (peptide sequence: FGQAAWATAIPR, peptide start residue: 324) | -0.0431 |
| PWP2 (peptide sequence: ELDKITAK, peptide start residue: 593) (UniProt Q15269) | 0.223 |
| UniProt Q15750 (peptide sequence: LSAELLLGQLNAEHAEADVRR, peptide start residue: 84) | -0.119 |
| TATDN3 (peptide sequence: SAGRPTINLLQEQGAEK, peptide start residue: 150) (UniProt Q17R31) | 0.0147 |
| TBC1D25 (peptide sequence: RDPLVQLPHPAALISSK, peptide start residue: 521) (UniProt Q3MII6) | 0.148 |
| TSR1 (peptide sequence: RGHIKEPLGTHGHMK, peptide start residue: 738) (UniProt Q2NL82) | 0.264 |
| TAF11 (peptide sequence: EDSSLLNPAAK, peptide start residue: 72) (UniProt Q15544) | 0.125 |
| MTERF2 (peptide sequence: IKDGHLANLNGSKK, peptide start residue: 344) (UniProt Q49AM1) | 0.869 |

Laid out differently: results already given.
TCEAL1 (peptide sequence: KENEEEPQSAPK, peptide start residue: 6) (UniProt Q15170)
  log2 fold change: -0.493
UniProt Q1A5X7 (peptide sequence: FGQAAWATAIPR, peptide start residue: 324)
  log2 fold change: -0.0431
